{"source": "patent US20020028237A1", "about": "“Method for reducing toxicity of a cytotoxic agent” (priority 2000, published 2002)", "origin": "cited, not measured here", "system": "PPE", "settings": "oral dexamethasone 8 mg bid premedication; liposomal doxorubicin 50 mg/m^2 q 4 weeks; cited from earlier work", "note": "At least one structure is not confirmed: it was looked up by name or label, or the drawing left a doubt."}
{"smiles": "C[C@@H]1C[C@H]2[C@@H]3CCC4=CC(=O)C=C[C@]4(C)[C@@]3(F)[C@@H](O)C[C@]2(C)[C@@]1(O)C(=O)CO", "note": "[dexamethasone]", "values": [{"measurement": "effect on further episodes of PPE", "result": "prevented further episodes of PPE"}]}
